Results are given in words; binding and its absence hold for the method and conditions named. In cells and extracts the contact can be indirect. Some entries that bind do so weakly or less than the wild type. Where a sequence is shown, tags or fusion partners need not be part of it.
Target: T1, Ring Finger Protein 182 (RNF182), endogenous in rat NRK-49F cells (rat (endogenous in NRK-49F)) (UniProt D3ZBM4)
T1 sequence: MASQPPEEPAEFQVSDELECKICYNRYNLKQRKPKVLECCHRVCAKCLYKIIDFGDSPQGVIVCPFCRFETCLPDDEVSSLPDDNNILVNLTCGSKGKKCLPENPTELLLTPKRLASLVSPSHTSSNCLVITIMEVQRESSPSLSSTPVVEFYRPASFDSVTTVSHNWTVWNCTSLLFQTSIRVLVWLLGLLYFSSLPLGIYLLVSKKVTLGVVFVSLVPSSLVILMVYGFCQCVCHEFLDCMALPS
Test: co-IP; endogenous proteins; lysates (50 mM Tris-HCl pH 7.4, 150 mM NaCl, 1 mM EDTA, 1% NP-40 or Triton X-100) immunoprecipitated with anti-RNF182 or control IgG, Protein A/G magnetic beads, 4 °C, Western blot for RNF182 and MFN2; basal cells, and cells treated with vehicle, TGF-β1 or …

binding: binds
B1: Mitofusin 2 (MFN2), endogenous in rat NRK-49F cells (protein, UniProt Q8R500 1-757)
chain: MSLLFSRCNSIVTVKKDKRHMAEVNASPLKHFVTAKKKINGIFEQLGAYIQESAGFLEDTHRNTELDPVTTEEQVLDVKGYLSKVRGISEVLARRHMKVAFFGRTSNGKSTVINAMLWDKVLPSGIGHTTNCFLRVGGTDGHEAFLLTEGSEEKKSVKTVNQLAHALHQDEQLHAGSLVSVMWPNSKCPLLKDGLVLMDSPGIDVTTELDSWIDKFCLDADVFVLVANSESTLMQTEKQFFHKVSERLSRPNIFILNNRWDASASEPEYMEEVRRQHMERCTSFLVDELGVVDRAQAGDRIFFVSAKEVLSARVQKAQGMPEGGGALAEGFQVRMFEFQNFERRFEECISQSAVKTKFEQHTVRAKQIAEAVRLIMDSLHIAAQEQRVYCLEMREERQDRLRFIDKQLELLAQDYKLRIKQMTEEVERQVSTAMAEEIRRLSVLVDEYQMDFHPSPVVLKVYKNELHRHIEEGLGRNMSDRCSTAIASSLQTMQQDMIDGLKPLLPVSVRNQIDMLVPRQCFSLSYDLNCDKLCADFQEDIEFHFSLGWTMLVNRFLGPKNSRRALLGYNDQVQRPLPLTPANPSMPPLPQGSLTQEELMVSMVTGLASLTSRTSMGILVVGGVVWKAVGWRLIALSFGLYGLLYVYERLTWTTRAKERAFKRQFVEYASEKLQLIISYTGSNCSHQVQQELSGTFAHLCQQVDITRDNLEQEIAAMNKKVEALDSLQSKAKLLRNKAGWLDSELNMFIHQYLQPSR

From article PMC12848067
